The record followed here is article doi:10.1101/2025.02.21.639453.

Protein sequences, listed by entry. Tags and fused reporters are not part of them. Residues count along the entry.
UniProt P84077: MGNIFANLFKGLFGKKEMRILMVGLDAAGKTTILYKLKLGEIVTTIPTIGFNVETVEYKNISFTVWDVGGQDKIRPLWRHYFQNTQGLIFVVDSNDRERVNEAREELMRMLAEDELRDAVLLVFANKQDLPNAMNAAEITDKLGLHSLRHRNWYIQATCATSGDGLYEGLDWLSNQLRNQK
UniProt P30530, residues 26-894: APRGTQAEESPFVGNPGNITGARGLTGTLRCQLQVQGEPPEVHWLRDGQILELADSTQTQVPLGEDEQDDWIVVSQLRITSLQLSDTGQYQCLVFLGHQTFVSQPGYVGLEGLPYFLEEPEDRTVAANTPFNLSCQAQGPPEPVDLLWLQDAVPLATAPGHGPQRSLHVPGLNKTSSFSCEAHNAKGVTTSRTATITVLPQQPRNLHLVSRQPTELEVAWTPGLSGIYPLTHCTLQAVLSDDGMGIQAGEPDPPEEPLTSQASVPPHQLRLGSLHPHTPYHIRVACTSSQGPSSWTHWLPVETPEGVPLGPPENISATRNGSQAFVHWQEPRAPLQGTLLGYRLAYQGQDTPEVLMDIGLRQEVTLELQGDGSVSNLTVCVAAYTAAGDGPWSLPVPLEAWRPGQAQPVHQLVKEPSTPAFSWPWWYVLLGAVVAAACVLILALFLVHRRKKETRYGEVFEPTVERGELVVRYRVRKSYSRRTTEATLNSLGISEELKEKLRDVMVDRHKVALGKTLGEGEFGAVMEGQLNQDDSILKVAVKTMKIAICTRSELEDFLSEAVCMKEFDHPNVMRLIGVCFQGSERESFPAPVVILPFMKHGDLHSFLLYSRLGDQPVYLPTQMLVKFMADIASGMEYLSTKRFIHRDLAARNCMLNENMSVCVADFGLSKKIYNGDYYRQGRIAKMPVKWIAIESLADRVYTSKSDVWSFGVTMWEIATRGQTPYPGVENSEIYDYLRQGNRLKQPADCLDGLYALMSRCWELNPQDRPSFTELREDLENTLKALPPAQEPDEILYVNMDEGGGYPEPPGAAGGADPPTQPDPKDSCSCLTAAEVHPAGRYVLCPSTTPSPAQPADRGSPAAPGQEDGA

The target in one test is T1, GST-GGA3 (UniProt Q9NZ52).
T1 sequence: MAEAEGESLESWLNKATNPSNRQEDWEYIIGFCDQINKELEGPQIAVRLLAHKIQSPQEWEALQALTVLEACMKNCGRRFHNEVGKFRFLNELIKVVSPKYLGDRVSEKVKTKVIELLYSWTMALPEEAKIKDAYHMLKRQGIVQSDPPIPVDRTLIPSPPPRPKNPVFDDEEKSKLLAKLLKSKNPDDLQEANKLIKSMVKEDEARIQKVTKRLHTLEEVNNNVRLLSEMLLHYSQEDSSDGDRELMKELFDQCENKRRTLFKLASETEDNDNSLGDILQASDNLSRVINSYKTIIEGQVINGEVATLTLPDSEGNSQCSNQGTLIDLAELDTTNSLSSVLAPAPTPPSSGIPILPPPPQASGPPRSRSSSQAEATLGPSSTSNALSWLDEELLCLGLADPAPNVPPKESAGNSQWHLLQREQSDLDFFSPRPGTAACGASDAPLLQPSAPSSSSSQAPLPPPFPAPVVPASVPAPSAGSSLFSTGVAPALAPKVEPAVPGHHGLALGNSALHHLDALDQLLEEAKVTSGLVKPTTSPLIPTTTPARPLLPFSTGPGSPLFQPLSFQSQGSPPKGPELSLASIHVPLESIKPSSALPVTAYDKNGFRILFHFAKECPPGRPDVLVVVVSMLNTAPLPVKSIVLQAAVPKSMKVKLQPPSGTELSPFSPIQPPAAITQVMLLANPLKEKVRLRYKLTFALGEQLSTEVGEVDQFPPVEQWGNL
As to the kind of experiment: pull-down.

Test [1] deals with Active Arf1 (human (endogenous in MDAMB231 and A549)) (UniProt P84077). As to the kind of experiment: pull-down.

These are yes or no findings as the source states them, for the method shown. In cells and extracts the contact can be indirect. Some results given as binding are weak or reduced against the parent protein; the word gives no strength. For some assays here: Where a sequence is shown, tags or fusion partners need not be part of it.

With Active Arf1 (from UniProt P84077 1-181), the binding entry in the test with GST-GGA3 is given as “binds”.

Regarding “Receptor tyrosine kinase AXL (from UniProt P30530 26-894)”, the binding result in test [1] is given as “binds”.
